Results as given in patent US20210032257A1, “(E)-1-(4-(DIMETHYLAMINO)BUT-2-ENOYL)PYRROLIDIN-3-YL 4-((3-ISOPROPYL-5-METHYLPYRAZOLO[1,5-A]PYRIMIDIN-7-YL)AMINO)PIPERIDINE-1-CARBOXYLATE FOR INHIBITING CDK7” (Eli Lilly and Company, priority 2017, published 2021).

Tests used:
Assay in all cases: Biomarker study: distribution of anti-proliferation effects
Format in all cases: cell-based
[1] = test system: ARID1A mutants cancer cell lines
Experimental: (§1) Cancer cell lines are profiled to evaluate the anti-proliferative activity of a test compound in-vitro. Mutation, copy number and gene expression information of ARID1A, KMT2C, KMT2D and/or RB1 genes across cancer cell lines is obtained from COSMIC database (cancer.sanger.ac.uk) and cBioportal (http://www.cbioportal.org/). Cells are cultured in growth medium and plated into a 96-well plate in 100 μL/well growth medium at 5000 cells/well then incubated at 37° C., 5% CO2 overnight. Cells are cultured using supplier recommended media and conditions well known in the art, for example with RPMI 1640 with or without HEPES & L-Glutamine (Thermo SH30255.01) and 1 mM Sodium Pyruvate, and 10% FBS(Gibco cat #10082). The 1000× intermediate dilution plate is prepared by making a 10 mM working solution of a test sample in DMSO and performing 1:3 dilutions in DMSO for 10 points. The 10× dosing plate is prepared by adding 2 μL from the 1000× intermediate dilution plate to 198 μL of OPTIMEM®+10% FBS and mixing well. The cell plate is then treated by adding 11 μL from the 10× dosing plate into the 100 μL/well cell plate for a 1× final concentration. Staurosporine is used as a maximum growth inhibition control at a final concentration of 5 μM. The cell plate is incubated for 7 days at 37° C., 5% CO2. Seven days after treatment, Cell Titer-Glo® (Promega cat #G7571) assay buffer and substrate are removed from −20° C. and allowed to equilibrate to RT. Assay buffer is added to the substrate and swirled gently to mix. The CELL TITER-GLO® reagent (100 μL/well) is added to the cell plate and incubated at RT for 15 minutes. After 15 minutes, luminescence is read using a plate reader. Data is analyzed in Excel and graphed in GraphPad Prism. Statistical analysis and p value is calculated using Mann-Whitney nonparameteric t tests using GraphPad Prism.
(§2) Anti-proliferative effects of a test compound are categorized as insensitive (IC50≥1 μM), cytostatic (IC50<1 μM and % inhibition <70%) or cytotoxic (IC50<1 μM and % inhibition ≥70%).

[2] = test system: KMT2C mutants cancer cell lines
Experimental: as §1, §2

[3] = test system: KMT2D mutants cancer cell lines
Experimental: as §1, §2

[4] = test system: Others (cancer cell lines)
Experimental: as §1, §2

[5] = test system: RB1 mutants cancer cell lines
Experimental: as §1, §2

## Cc1cc(NC2CCN(C(=O)O[C@H]3CCN(C(=O)/C=C/CN(C)C)C3)CC2)n2ncc(C(C)C)c2n1 [Example 1, [(3S)-1-[(E)-4-(dimethylamino)but-2-enoyl]pyrrolidin-3-yl] 4-[(3-isopropyl-5-methyl-pyrazolo[1,5-a]pyrimidin-7-yl)amino]piperidine-1-carboxylate]
[1]
  Distribution (%) of anti-proliferation effects: Cytostatic (IC50 <1 μM, % Inh. <70): 23%, n = 9
  Distribution (%) of anti-proliferation effects: Insensitive (lC50 ≥1 μM, % Inh. <70): 13%, n = 5
[2]
  Distribution (%) of anti-proliferation effects: Cytostatic (IC50 <1 μM, % Inh. <70): 20%, n = 2
  Distribution (%) of anti-proliferation effects: Insensitive (lC50 ≥1 μM, % Inh. <70): 10%, n = 1
[3]
  Distribution (%) of anti-proliferation effects: Cytostatic (IC50 <1 μM, % Inh. <70): 12%, n = 3
  Distribution (%) of anti-proliferation effects: Insensitive (lC50 ≥1 μM, % Inh. <70): 12%, n = 3
[4]
  Distribution (%) of anti-proliferation effects: Cytostatic (IC50 <1 μM, % Inh. <70): 44%, n = 45
  Distribution (%) of anti-proliferation effects: Insensitive (lC50 ≥1 μM, % Inh. <70): 17%, n = 17
[5]
  Distribution (%) of anti-proliferation effects: Cytostatic (IC50 <1 μM, % Inh. <70): 37%, n = 15
  Distribution (%) of anti-proliferation effects: Insensitive (lC50 ≥1 μM, % Inh. <70): 10%, n = 4
